# Some of the results follow.
# Key:
# Test in all cases: glycan array binding signal (z-score within array); higher = stronger binding
# Conditions in all cases: glycan notation: IUPAC condensed, linker removed
# [1] = biological target: Fuc(a1-3)[GalNAc(b1-4)]GlcNAc
# In short: (§1)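 The binding signal is a Z-score computed within each array and averaged over linkers. Arrays of the same protein sequence at different concentrations or buffers were also averaged together. Data originate from 3228 arrays in the Consortium for Functional Glycomics database, kept only where the protein sequence was available.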
# Fuc(a1-4)GlcNAc = biological target: Fuc(a1-4)GlcNAc
# In short: as §1
# Fuc(b1-3)GlcNAc = biological target: Fuc(b1-3)GlcNAc
# In short: as §1
# Gal(a1-2)Gal = biological target: Gal(a1-2)Gal
# In short: as §1
# Gal(a1-3)Gal = biological target: Gal(a1-3)Gal
# In short: as §1
# Gal(a1-3)Gal(b1-3)GlcNAc = biological target: Gal(a1-3)Gal(b1-3)GlcNAc
# In short: as §1
# Gal(a1-3)Gal(b1-4)Glc = biological target: Gal(a1-3)Gal(b1-4)Glc
# In short: as §1
# Gal(a1-3)Gal(b1-4)GlcNAc = biological target: Gal(a1-3)Gal(b1-4)GlcNAc
# In short: as §1
# [2] = biological target: Gal(a1-3)Gal(b1-4)[Fuc(a1-3)]GlcNAc
# In short: as §1
# Gal(a1-3)GalNAc = biological target: Gal(a1-3)GalNAc
# In short: as §1
# [3] = biological target: Gal(a1-3)[Gal(a1-4)]Gal(b1-4)GlcNAc
# In short: as §1
# Gal(a1-4)Gal(b1-4)Glc = biological target: Gal(a1-4)Gal(b1-4)Glc
# In short: as §1
# Gal(a1-4)Gal(b1-4)GlcNAc = biological target: Gal(a1-4)Gal(b1-4)GlcNAc
# In short: as §1
# Gal(a1-4)GlcNAc = biological target: Gal(a1-4)GlcNAc
# In short: as §1
# Gal(a1-6)Glc = biological target: Gal(a1-6)Glc
# In short: as §1
# Gal(b1-2)Gal = biological target: Gal(b1-2)Gal
# In short: as §1
# Gal(b1-3)Gal = biological target: Gal(b1-3)Gal
# In short: as §1
# Gal(b1-3)Gal(b1-4)GlcNAc = biological target: Gal(b1-3)Gal(b1-4)GlcNAc
# In short: as §1
# Gal(b1-3)GalNAc = biological target: Gal(b1-3)GalNAc
# In short: as §1
# [4] = biological target: Gal(b1-3)GalNAc(b1-3)Gal(a1-4)Gal(b1-4)Glc
# In short: as §1
# [5] = biological target: Gal(b1-3)GalNAc(b1-4)Gal(b1-4)Glc
# In short: as §1
# [6] = biological target: Gal(b1-3)GalNAc(b1-4)[Neu5Ac(a2-3)]Gal(b1-4)Glc
# In short: as §1
# Gal(b1-3)GlcNAc = biological target: Gal(b1-3)GlcNAc
# In short: as §1
# [7] = biological target: Gal(b1-3)GlcNAc(b1-2)Man(a1-3)[Gal(b1-3)GlcNAc(b1-2)Man(a1-6)]Man(b1-4)GlcNAc(b1-4)GlcNAc
# In short: as §1
# [8] = biological target: Gal(b1-3)GlcNAc(b1-3)Gal(b1-3)GlcNAc
# In short: as §1
# [9] = biological target: Gal(b1-3)GlcNAc(b1-3)Gal(b1-4)Glc
# In short: as §1
# [10] = biological target: Gal(b1-3)GlcNAc(b1-3)Gal(b1-4)GlcNAc
# In short: as §1
# [11] = biological target: Gal(b1-3)[Fuc(a1-4)]GlcNAc
# In short: as §1
# [12] = biological target: Gal(b1-3)[Fuc(a1-4)]GlcNAc(b1-3)Gal(b1-3)[Fuc(a1-4)]GlcNAc
# In short: as §1
# [13] = biological target: Gal(b1-3)[Fuc(a1-4)]GlcNAc(b1-3)Gal(b1-4)GlcNAc
# In short: as §1
# [14] = biological target: Gal(b1-3)[Fuc(a1-4)]GlcNAc(b1-3)Gal(b1-4)[Fuc(a1-3)]GlcNAc
# In short: as §1
# [15] = biological target: Gal(b1-3)[GlcNAc(b1-6)]GalNAc
# In short: as §1
# [16] = biological target: Gal(b1-3)[Neu5Ac(a2-6)]GalNAc
# In short: as §1
# [17] = biological target: Gal(b1-3)[Neu5Ac(a2-6)]GlcNAc(b1-6)Gal(b1-4)Glc
# In short: as §1
# [18] = biological target: Gal(b1-3)[Neu5Ac(b2-6)]GalNAc
# In short: as §1
# [19] = biological target: Gal(b1-4)GalNAc(a1-3)[Fuc(a1-2)]Gal(b1-4)GlcNAc
# In short: as §1
# [20] = biological target: Gal(b1-4)GalNAc(b1-3)[Fuc(a1-2)]Gal(b1-4)GlcNAc
# In short: as §1
# Gal(b1-4)Glc = biological target: Gal(b1-4)Glc
# In short: as §1
# Gal(b1-4)Glc6S = biological target: Gal(b1-4)Glc6S
# In short: as §1
# Gal(b1-4)GlcNAc = biological target: Gal(b1-4)GlcNAc
# In short: as §1
# [21] = biological target: Gal(b1-4)GlcNAc(a1-6)Gal(b1-4)GlcNAc
# In short: as §1
# [22] = biological target: Gal(b1-4)GlcNAc(b1-2)Man(a1-3)[Gal(b1-4)GlcNAc(b1-2)Man(a1-6)]Man(b1-4)GlcNAc(b1-4)GlcNAc
# In short: as §1
# [23] = biological target: Gal(b1-4)GlcNAc(b1-3)Gal(b1-3)GlcNAc
# In short: as §1
# [24] = biological target: Gal(b1-4)GlcNAc(b1-3)Gal(b1-4)Glc
# In short: as §1
# [25] = biological target: Gal(b1-4)GlcNAc(b1-3)Gal(b1-4)GlcNAc
# In short: as §1
binder,measurement,setting,value
"CLC (Homo sapiens), Q9UBD9 (protein) MDLRAGDSWGMLACLCTVLWHLPAVPALNRTGDPGPGPSIQKTYDLTRYLEHQLRSLAGTYLNYLGPPFNEPDFNPPRLGAETLPRATVDLEVWRSLNDKLRLTQNYEAYSHLLCYLRGLNRQAATAELRRSLAHFCTSLQGLLGSIAGVMAALGYPLPQPLPGTEPTWTPGPAHSDFLQKMDDFWLLKELQTWLWRSAKDFNRLKKKMQPPAAAVTLHLGAHGF",glycan array binding signal (z-score),[1],0.049
same,glycan array binding signal (z-score),Fuc(a1-4)GlcNAc,-0.798
same,glycan array binding signal (z-score),Fuc(b1-3)GlcNAc,-0.899
same,glycan array binding signal (z-score),Gal(a1-2)Gal,-0.065
same,glycan array binding signal (z-score),Gal(a1-3)Gal,0.801
same,glycan array binding signal (z-score),Gal(a1-3)Gal(b1-3)GlcNAc,-0.75
same,glycan array binding signal (z-score),Gal(a1-3)Gal(b1-4)Glc,-0.691
same,glycan array binding signal (z-score),Gal(a1-3)Gal(b1-4)GlcNAc,-1.1
same,glycan array binding signal (z-score),[2],-0.023
same,glycan array binding signal (z-score),Gal(a1-3)GalNAc,-0.812
same,glycan array binding signal (z-score),[3],-0.598
same,glycan array binding signal (z-score),Gal(a1-4)Gal(b1-4)Glc,0.465
same,glycan array binding signal (z-score),Gal(a1-4)Gal(b1-4)GlcNAc,0.058
same,glycan array binding signal (z-score),Gal(a1-4)GlcNAc,-0.694
same,glycan array binding signal (z-score),Gal(a1-6)Glc,-0.312
same,glycan array binding signal (z-score),Gal(b1-2)Gal,-0.516
same,glycan array binding signal (z-score),Gal(b1-3)Gal,-0.329
same,glycan array binding signal (z-score),Gal(b1-3)Gal(b1-4)GlcNAc,-1.17
same,glycan array binding signal (z-score),Gal(b1-3)GalNAc,-0.946
same,glycan array binding signal (z-score),[4],0.319
same,glycan array binding signal (z-score),[5],-0.663
same,glycan array binding signal (z-score),[6],-0.676
same,glycan array binding signal (z-score),Gal(b1-3)GlcNAc,0.134
same,glycan array binding signal (z-score),[7],-1.01
same,glycan array binding signal (z-score),[8],-0.615
same,glycan array binding signal (z-score),[9],0.888
same,glycan array binding signal (z-score),[10],-0.816
same,glycan array binding signal (z-score),[11],-0.464
same,glycan array binding signal (z-score),[12],0.591
same,glycan array binding signal (z-score),[13],-0.167
same,glycan array binding signal (z-score),[14],0.519
same,glycan array binding signal (z-score),[15],-0.11
same,glycan array binding signal (z-score),[16],0.212
same,glycan array binding signal (z-score),[17],0.381
same,glycan array binding signal (z-score),[18],0.386
same,glycan array binding signal (z-score),[19],-0.814
same,glycan array binding signal (z-score),[20],-0.903
same,glycan array binding signal (z-score),Gal(b1-4)Glc,-0.607
same,glycan array binding signal (z-score),Gal(b1-4)Glc6S,-0.014
same,glycan array binding signal (z-score),Gal(b1-4)GlcNAc,-0.608
same,glycan array binding signal (z-score),[21],0.093
same,glycan array binding signal (z-score),[22],-0.216
same,glycan array binding signal (z-score),[23],0.926
same,glycan array binding signal (z-score),[24],1.25
same,glycan array binding signal (z-score),[25],0.581

# Exported bar-delimited: part of the list above.
binder | measurement | setting | value
CLC (Homo sapiens), Q9UBD9 (protein) MDLRAGDSWGMLACLCTVLWHLPAVPALNRTGDPGPGPSIQKTYDLTRYLEHQLRSLAGTYLNYLGPPFNEPDFNPPRLGAETLPRATVDLEVWRSLNDKLRLTQNYEAYSHLLCYLRGLNRQAATAELRRSLAHFCTSLQGLLGSIAGVMAALGYPLPQPLPGTEPTWTPGPAHSDFLQKMDDFWLLKELQTWLWRSAKDFNRLKKKMQPPAAAVTLHLGAHGF | glycan array binding signal (z-score) | Fuc(b1-3)GlcNAc | -0.899
same | glycan array binding signal (z-score) | Gal(a1-2)Gal | -0.065
same | glycan array binding signal (z-score) | Gal(a1-3)Gal | 0.801

# Reference: the supplement of paper PMC8728848
